Data on seven sequences can be found in PMC10844655.

Common to all, as to assay: EMSA
For orientation: In EMSA bound probe runs differently from free probe, usually more slowly.

One series deals with Pol II-IDR. To be noted: Binding buffer 250 mM HEPES, 500 mM KCl, 20 mM MgSO4, on ice 30 min, G4 oligos annealed in 50 mM Tris-HCl, 50 mM KCl, 40% PEG200, recombinant protein, protein details: EGFP, His6, label: FAM.
The target in the next series is T1, MAZ WT (human) (UniProt P56270).
T1 sequence (looked up, limits assumed): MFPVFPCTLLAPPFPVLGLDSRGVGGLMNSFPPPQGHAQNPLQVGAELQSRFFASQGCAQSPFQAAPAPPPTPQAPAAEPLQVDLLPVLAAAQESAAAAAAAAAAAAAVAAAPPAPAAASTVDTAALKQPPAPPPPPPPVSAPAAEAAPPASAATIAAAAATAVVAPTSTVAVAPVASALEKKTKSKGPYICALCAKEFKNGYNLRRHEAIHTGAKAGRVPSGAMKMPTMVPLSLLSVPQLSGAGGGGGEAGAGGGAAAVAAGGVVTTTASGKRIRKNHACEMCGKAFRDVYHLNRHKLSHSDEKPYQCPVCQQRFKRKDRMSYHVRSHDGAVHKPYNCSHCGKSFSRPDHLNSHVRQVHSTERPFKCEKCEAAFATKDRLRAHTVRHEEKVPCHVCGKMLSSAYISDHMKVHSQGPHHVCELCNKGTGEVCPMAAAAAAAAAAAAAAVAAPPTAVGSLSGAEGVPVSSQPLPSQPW
Particulars: Binding buffer 250 mM HEPES, 500 mM KCl, 20 mM MgSO4, on ice 30 min, G4 oligos annealed in 50 mM Tris-HCl, 50 mM KCl, 40% PEG200, recombinant protein, protein details: His6 (also mCherry-His6 fusion), label: FAM, folded or branched DNA.

Another series concerns the target MAZ ZF234M (human) (UniProt P56270). To be noted: Binding buffer 250 mM HEPES, 500 mM KCl, 20 mM MgSO4, on ice 30 min, G4 oligos annealed in 50 mM Tris-HCl, 50 mM KCl, 40% PEG200, recombinant protein, protein details: mCherry, His6, label: FAM, folded or branched DNA.
Another series concerns the target MAZ ZF2M (human) (UniProt P56270). To be noted: Binding buffer 250 mM HEPES, 500 mM KCl, 20 mM MgSO4, on ice 30 min, G4 oligos annealed in 50 mM Tris-HCl, 50 mM KCl, 40% PEG200, recombinant protein, protein details: mCherry, His6, label: FAM, folded or branched DNA.
For a further series, the target named is MAZ ZF3M (human) (UniProt P56270). Particulars: Binding buffer 250 mM HEPES, 500 mM KCl, 20 mM MgSO4, on ice 30 min, G4 oligos annealed in 50 mM Tris-HCl, 50 mM KCl, 40% PEG200, recombinant protein, protein details: mCherry, His6, label: FAM, folded or branched DNA.
Another series concerns the target MAZ ZF4M (human) (UniProt P56270). To be noted: Binding buffer 250 mM HEPES, 500 mM KCl, 20 mM MgSO4, on ice 30 min, G4 oligos annealed in 50 mM Tris-HCl, 50 mM KCl, 40% PEG200, recombinant protein, protein details: mCherry, His6, label: FAM, folded or branched DNA.

The exact form of at least one protein or probe is not confirmed. For some of these results: No signal at the amounts used counts as a negative. For some of these results: At least one verdict rests on a figure or table, not on a statement of the authors. For some of these results: A weaker result is weaker than the reference pair of the same experiment. For some of these results: Protein sequences can lack the tags named with them.

For “ATGAGAGCGAGAGAGAGACGAGAGCGAGCGCAGAGAGAGAGAGCGCGAGCG [CCND1-G4 Mut1]”, the binding result in the series on Pol II-IDR (single-stranded DNA) is on record as “no binding”.

Regarding “ATGGGAGCGGGAGGGGGGCGGGGGCGGGCGCAGGGGGAGGGGGCGCGGGCG [CCND1-G4 WT]”, the binding result is recorded as “binds more weakly” with MAZ WT (human) (PDS); “binds more weakly” in the series with MAZ WT (human) (TMPyP4); “no binding” with MAZ ZF234M (human) (virtually failed); “no binding” in the series with MAZ ZF2M (human) (virtually failed); “binds” with MAZ ZF3M (human) (largely retained); “binds” with MAZ ZF4M (human) (largely retained). For the same sequence, the binding result with Pol II-IDR (folded or branched DNA) is reported as “binds”.

Consider GGAGGAGGAGGAGGAGGAGGAGGA [MYB-G4], for which the binding result with MAZ ZF234M (human) is listed as “no binding”; with MAZ ZF2M (human), “no binding”; with MAZ ZF3M (human), “binds”; with MAZ ZF4M (human), “binds”.

As for GGGCGCGGGAGGAATTGGGCGGG [BCL2-G4], the binding result is “no binding” with MAZ ZF234M (human), “no binding” with MAZ ZF2M (human), “binds” in the series with MAZ ZF3M (human) and “binds” in the series with MAZ ZF4M (human).

With GGGGCGCGGGGCGCGGGGCATGGGG [MDM2-G4], the binding result is recorded as “no binding” with MAZ ZF234M (human), “no binding” with MAZ ZF2M (human), “binds” with MAZ ZF3M (human) and “binds” with MAZ ZF4M (human).

With TAGGGTTAGGGTTAGGGTTAGGGTTAG [TEL-G4], the binding result is on record as “no binding” with MAZ ZF234M (human), “no binding” in the series with MAZ ZF2M (human), “binds” with MAZ ZF3M (human) and “binds” with MAZ ZF4M (human).

“TGAGGGTGGGTAGGGTGGGTAA [MYC-G4 (Table S2)]”: the binding result was “no binding” with MAZ ZF234M (human), “no binding” in the series with MAZ ZF2M (human), “binds” with MAZ ZF3M (human) and “binds” in the series with MAZ ZF4M (human).
